Compound in this test: CC1Cc2ccccc2N1C(=O)C1CCCN(C1)C(=O)CCl (mixture of isomers) [TRIM25 ligand 11 (diastereomer mixture)]
Put plainly: probe-labelled cysteine peptide fold change vs DMSO (competition) (log2 fold change); higher = less target engagement (more negative = stronger competition). Particulars: THP-1, incubation time: 4 h.

Protein sequences, listed by entry. Tags and fused reporters are not part of them. Lines headed by an entry give the natural chain unless they say otherwise; changes in a name come on top.
UniProt O43586: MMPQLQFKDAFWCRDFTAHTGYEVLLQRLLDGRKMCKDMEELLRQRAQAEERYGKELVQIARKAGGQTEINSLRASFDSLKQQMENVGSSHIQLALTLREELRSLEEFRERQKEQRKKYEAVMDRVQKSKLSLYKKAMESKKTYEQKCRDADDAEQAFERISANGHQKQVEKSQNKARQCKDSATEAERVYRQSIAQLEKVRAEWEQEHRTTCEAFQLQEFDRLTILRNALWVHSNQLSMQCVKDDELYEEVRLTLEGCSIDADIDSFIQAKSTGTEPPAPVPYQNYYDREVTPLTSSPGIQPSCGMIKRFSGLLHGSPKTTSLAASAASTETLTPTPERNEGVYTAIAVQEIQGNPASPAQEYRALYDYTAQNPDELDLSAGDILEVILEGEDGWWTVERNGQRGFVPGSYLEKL
UniProt P18433: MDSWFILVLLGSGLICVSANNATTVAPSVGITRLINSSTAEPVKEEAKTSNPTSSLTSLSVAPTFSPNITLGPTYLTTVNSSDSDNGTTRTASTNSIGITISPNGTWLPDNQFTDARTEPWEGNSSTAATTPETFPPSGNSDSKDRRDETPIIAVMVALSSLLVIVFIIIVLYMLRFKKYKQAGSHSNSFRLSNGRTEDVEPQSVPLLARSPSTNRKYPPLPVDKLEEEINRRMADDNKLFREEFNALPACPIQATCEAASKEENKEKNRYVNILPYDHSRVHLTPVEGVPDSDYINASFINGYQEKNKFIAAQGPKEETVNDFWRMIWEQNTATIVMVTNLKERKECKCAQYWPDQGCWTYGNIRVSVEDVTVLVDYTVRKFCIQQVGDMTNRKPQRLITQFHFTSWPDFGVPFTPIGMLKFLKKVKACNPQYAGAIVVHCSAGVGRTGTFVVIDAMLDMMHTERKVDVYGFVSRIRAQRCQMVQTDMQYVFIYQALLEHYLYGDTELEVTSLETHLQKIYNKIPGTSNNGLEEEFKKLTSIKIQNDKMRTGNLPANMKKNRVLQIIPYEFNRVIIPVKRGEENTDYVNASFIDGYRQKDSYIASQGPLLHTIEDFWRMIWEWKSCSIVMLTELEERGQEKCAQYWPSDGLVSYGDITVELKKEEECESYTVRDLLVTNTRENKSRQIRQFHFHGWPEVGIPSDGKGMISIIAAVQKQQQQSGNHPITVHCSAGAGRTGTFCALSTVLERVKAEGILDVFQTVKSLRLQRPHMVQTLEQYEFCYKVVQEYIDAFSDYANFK
UniProt O43242, whole entry, looked up: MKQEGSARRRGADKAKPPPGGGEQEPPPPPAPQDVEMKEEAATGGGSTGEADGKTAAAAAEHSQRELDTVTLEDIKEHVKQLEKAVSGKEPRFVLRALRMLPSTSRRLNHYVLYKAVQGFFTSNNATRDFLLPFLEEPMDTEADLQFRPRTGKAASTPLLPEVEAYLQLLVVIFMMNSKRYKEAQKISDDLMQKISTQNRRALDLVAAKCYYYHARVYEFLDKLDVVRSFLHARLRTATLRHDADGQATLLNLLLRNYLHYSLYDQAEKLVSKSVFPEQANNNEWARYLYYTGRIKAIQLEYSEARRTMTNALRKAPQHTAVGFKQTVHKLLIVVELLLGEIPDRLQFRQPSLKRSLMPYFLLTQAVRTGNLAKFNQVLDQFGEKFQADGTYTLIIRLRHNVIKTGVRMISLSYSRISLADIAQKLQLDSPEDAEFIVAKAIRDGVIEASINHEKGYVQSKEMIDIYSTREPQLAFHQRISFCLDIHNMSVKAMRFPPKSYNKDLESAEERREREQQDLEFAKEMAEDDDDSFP
UniProt P62333, whole entry, looked up: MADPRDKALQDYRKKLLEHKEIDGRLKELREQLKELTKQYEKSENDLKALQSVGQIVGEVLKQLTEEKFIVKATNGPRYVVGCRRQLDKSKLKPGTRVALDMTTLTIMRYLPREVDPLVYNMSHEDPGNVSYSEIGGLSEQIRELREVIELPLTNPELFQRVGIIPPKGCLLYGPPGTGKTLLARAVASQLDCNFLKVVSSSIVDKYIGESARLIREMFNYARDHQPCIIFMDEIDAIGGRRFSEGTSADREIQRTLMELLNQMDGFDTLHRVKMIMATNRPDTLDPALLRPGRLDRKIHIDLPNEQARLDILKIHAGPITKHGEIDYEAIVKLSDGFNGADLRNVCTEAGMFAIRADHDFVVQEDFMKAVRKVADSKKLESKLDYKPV
UniProt P08575: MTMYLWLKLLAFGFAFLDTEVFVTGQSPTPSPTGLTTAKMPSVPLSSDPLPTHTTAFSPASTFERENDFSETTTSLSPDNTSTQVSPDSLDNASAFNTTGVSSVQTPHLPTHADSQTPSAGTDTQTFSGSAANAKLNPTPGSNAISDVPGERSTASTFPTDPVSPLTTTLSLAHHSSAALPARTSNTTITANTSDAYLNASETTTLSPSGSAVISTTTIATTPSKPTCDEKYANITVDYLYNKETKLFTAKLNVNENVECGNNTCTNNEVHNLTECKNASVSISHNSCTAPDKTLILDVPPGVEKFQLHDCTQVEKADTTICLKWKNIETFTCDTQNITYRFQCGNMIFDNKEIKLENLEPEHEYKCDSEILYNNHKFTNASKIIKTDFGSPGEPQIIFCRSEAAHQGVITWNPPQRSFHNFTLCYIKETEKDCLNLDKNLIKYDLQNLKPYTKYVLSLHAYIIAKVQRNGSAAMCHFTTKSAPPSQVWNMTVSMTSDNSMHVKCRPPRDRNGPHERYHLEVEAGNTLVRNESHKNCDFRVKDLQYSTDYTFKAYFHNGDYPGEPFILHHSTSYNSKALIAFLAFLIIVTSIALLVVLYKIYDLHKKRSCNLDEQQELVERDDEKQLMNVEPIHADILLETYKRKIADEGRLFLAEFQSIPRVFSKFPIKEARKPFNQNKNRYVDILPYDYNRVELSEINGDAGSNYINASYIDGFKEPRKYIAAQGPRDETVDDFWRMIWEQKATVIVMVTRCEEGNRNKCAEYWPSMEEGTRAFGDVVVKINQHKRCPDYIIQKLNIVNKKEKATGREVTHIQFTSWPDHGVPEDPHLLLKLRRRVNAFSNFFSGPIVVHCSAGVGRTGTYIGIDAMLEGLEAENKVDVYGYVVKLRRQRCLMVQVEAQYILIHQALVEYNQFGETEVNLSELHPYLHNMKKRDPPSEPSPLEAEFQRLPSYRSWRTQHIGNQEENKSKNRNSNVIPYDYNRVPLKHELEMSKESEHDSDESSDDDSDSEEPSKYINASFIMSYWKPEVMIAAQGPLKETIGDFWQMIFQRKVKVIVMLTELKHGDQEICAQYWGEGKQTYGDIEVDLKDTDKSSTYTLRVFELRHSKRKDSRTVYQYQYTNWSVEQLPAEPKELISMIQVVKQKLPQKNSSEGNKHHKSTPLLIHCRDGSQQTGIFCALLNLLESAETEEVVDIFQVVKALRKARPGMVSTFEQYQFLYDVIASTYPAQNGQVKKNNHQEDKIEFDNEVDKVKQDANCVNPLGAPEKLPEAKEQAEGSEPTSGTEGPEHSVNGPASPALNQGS
UniProt P35236: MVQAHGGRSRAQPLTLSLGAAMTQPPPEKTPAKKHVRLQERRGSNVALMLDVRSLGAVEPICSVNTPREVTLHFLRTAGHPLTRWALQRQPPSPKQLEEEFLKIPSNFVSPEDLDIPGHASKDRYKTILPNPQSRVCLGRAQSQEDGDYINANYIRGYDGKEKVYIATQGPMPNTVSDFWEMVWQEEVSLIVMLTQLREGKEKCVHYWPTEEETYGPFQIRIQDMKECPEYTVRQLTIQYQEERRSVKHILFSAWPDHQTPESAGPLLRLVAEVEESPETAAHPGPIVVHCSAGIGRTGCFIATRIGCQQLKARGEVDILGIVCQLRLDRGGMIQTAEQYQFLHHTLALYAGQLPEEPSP
UniProt Q15185: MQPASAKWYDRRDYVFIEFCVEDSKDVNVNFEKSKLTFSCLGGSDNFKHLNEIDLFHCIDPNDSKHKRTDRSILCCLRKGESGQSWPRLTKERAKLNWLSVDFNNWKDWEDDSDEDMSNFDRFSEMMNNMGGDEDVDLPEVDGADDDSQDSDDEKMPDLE
UniProt Q96BW5: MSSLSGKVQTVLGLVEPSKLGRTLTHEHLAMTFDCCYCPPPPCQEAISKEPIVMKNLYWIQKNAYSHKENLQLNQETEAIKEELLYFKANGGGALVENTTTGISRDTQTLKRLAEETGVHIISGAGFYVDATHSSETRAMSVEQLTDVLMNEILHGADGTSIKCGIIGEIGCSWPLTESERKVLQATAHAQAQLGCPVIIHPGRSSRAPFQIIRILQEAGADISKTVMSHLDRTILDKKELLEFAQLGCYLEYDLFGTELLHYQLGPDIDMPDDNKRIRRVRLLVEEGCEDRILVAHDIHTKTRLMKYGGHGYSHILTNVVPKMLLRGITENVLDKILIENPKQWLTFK
UniProt Q14914: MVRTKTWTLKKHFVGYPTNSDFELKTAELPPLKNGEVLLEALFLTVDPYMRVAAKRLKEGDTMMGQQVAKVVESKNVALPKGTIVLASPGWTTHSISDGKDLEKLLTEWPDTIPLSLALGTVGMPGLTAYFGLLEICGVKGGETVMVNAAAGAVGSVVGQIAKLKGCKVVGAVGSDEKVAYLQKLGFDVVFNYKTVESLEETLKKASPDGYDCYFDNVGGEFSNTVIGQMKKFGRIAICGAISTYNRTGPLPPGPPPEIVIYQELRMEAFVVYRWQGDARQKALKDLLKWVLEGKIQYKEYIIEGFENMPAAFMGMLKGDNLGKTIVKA
UniProt Q8NDX1: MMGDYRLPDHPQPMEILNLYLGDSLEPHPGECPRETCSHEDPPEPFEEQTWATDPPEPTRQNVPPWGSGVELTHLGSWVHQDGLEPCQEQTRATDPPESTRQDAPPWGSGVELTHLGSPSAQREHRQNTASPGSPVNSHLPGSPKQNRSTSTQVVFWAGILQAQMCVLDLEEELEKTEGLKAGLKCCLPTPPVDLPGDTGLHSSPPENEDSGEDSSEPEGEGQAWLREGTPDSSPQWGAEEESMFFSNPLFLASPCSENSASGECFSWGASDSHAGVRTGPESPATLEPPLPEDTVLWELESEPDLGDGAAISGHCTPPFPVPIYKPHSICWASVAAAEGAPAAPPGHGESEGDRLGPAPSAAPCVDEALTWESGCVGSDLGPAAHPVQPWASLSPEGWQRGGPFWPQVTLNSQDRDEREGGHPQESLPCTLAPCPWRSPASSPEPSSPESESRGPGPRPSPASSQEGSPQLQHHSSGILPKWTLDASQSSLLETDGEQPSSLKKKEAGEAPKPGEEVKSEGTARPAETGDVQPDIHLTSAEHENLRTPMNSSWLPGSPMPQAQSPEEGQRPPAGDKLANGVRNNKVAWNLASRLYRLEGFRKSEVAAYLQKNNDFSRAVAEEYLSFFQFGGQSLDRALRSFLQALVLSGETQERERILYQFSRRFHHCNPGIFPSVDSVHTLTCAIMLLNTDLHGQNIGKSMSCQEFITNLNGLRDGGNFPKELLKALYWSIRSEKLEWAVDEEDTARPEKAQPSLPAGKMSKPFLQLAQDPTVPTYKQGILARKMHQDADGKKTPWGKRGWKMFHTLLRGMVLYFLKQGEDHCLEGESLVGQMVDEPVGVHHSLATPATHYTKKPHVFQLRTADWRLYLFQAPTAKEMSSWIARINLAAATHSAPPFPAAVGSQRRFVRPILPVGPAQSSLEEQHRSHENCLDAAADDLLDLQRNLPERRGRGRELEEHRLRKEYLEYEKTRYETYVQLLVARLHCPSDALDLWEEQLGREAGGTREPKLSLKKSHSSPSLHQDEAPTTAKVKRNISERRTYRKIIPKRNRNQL
UniProt P28062: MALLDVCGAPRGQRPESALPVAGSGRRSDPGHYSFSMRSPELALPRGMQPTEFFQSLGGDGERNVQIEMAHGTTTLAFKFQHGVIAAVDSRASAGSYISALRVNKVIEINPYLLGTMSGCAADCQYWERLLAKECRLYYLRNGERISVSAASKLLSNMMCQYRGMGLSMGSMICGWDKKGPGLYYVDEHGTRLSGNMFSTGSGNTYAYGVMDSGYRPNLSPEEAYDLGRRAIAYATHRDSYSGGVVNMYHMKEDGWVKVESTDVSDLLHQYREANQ
UniProt P55036: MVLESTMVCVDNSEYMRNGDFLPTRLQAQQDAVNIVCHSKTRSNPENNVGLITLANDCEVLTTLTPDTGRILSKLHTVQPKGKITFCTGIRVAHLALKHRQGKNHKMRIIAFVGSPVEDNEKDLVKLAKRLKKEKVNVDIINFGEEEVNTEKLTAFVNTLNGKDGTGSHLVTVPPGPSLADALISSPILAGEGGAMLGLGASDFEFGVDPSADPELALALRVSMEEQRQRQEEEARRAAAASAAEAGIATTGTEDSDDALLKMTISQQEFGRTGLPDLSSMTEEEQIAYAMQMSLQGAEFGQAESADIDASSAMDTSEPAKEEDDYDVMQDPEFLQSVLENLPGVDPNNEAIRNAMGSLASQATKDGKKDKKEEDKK

The list shows a part of the results.
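Further: competitive chemoproteomic profiling in live THP-1 cells with an iodoacetamide desthiobiotin (IA-DTB) probe, comparing probe-labelled peptide intensities in compound-treated cells against DMSO-treated controls.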

Take “PSTPIP1_O43586_259_LTLEGCSIDADIDSFIQAK (UniProt O43586)”: the “probe-labelled cysteine peptide fold change” value was 0.0804 (10 µM) and -0.0294 (50 µM).

Turning to “PSME4_Q14997_958_TLTVEGCEYK (UniProt Q14997)”, the “probe-labelled cysteine peptide fold change” value by setting is: (10 µM) 0.0335; (50 µM) 0.0375.

In the case of “PSMD1_Q99460_703_QGALIASALIMIQQTEITCPK (UniProt Q99460)”, the “probe-labelled cysteine peptide fold change” value turned out to be 8.6e-05 (10 µM) and 0.118 (50 µM).

As for “PTPRA_P18433_668_KEEECESYTVR (UniProt P18433)”, the “probe-labelled cysteine peptide fold change” value reads like this: (10 µM) 0.138; (50 µM) 0.0888.

In the case of “PSMD3_O43242_210_CYYYHAR (UniProt O43242)”, the “probe-labelled cysteine peptide fold change” value by setting is: (10 µM) 0.202; (50 µM) 0.387.

For the target “PSMB5_P28074_111_VIEINPYLLGTMAGGAADCSFWER (UniProt P28074)”, the “probe-labelled cysteine peptide fold change” value (10 µM) came out at 0.385 and the “probe-labelled cysteine peptide fold change” value (50 µM) was found to be 0.111.

As for “PSMC6_P62333_228_DHQPCIIFMDEIDAIGGRR (UniProt P62333)”, the “probe-labelled cysteine peptide fold change” value is -0.233 (10 µM) and -0.0784 (50 µM).

As for “PTPRC_P08575_853_RVNAFSNFFSGPIVVHCSAGVGR (UniProt P08575)”, the “probe-labelled cysteine peptide fold change” value reads like this: (10 µM) -0.0131; (50 µM) 0.0781.

With “PTPN7_P35236_228_ECPEYTVR (UniProt P35236)”, the “probe-labelled cysteine peptide fold change” value is -0.0455 (10 µM) and 0.0226 (50 µM).

“PTGES3_Q15185_58_HLNEIDLFHCIDPNDSK (UniProt Q15185)”: the “probe-labelled cysteine peptide fold change” value by setting is: (10 µM) -0.0289; (50 µM) -0.171.

With “PTBP3_O95758_68_KIPCDVTEAEIISLGLPFGK (UniProt O95758)”, the “probe-labelled cysteine peptide fold change” value runs as follows: (10 µM) 0.0362; (50 µM) -0.0189.

In the case of “PSIP1_O75475_204_QPCPSESDIITEEDK (UniProt O75475)”, the “probe-labelled cysteine peptide fold change” value (10 µM) was -0.128 and the “probe-labelled cysteine peptide fold change” value (50 µM) was -0.219.

“PTPA_Q15257_202_IDYGTGHEAAFAAFLCCLCK (UniProt Q15257)”: the “probe-labelled cysteine peptide fold change” value (10 µM) was found to be 0.0687 and the “probe-labelled cysteine peptide fold change” value (50 µM) was 0.512.

For the target “PTCD2_Q8WV60_355_FDEIYGTLHITGQVTTDSLDAVLCHTPR (UniProt Q8WV60)”, the “probe-labelled cysteine peptide fold change” value was 0.058 (10 µM) and -0.078 (50 µM).

Regarding “PTER_Q96BW5_289_LLVEEGCEDR (UniProt Q96BW5)”, the “probe-labelled cysteine peptide fold change” value (10 µM) came out at 0.0883 and the “probe-labelled cysteine peptide fold change” value (50 µM) was -0.0182.

On to “PTPN7_P35236_204_CVHYWPTEEETYGPFQIR (UniProt P35236)”, for which the “probe-labelled cysteine peptide fold change” value runs as follows: (10 µM) -0.0461; (50 µM) -0.0381.

For “PTGR1_Q14914_239_IAICGAISTYNR (UniProt Q14914)”, the “probe-labelled cysteine peptide fold change” value reads like this: (10 µM) 0.00206; (50 µM) 0.149.

Regarding “PTPRE_P23469_630_QQQQTGNHPITVHCSAGAGR (UniProt P23469)”, the “probe-labelled cysteine peptide fold change” value is, setting by setting: (10 µM) 0.281; (50 µM) 0.0723.

As to “PTGR2_Q8N8N7_187_VVGICGTHEK (UniProt Q8N8N7)”, the “probe-labelled cysteine peptide fold change” value (10 µM) worked out at 0.0779 and the “probe-labelled cysteine peptide fold change” value (50 µM) was found to be 0.17.

Regarding “PSD4_Q8NDX1_32_LPDHPQPMEILNLYLGDSLEPHPGECPR (UniProt Q8NDX1)”, the “probe-labelled cysteine peptide fold change” value was 0.0517 (10 µM) and -0.268 (50 µM).

As for “PTPN7_P35236_324_GEVDILGIVCQLR (UniProt P35236)”, the “probe-labelled cysteine peptide fold change” value (10 µM) was -0.0582 and the “probe-labelled cysteine peptide fold change” value (50 µM) was 0.0233.

As for “PTPRF_P10586_615_VMCVSMGSTTVR (UniProt P10586)”, the “probe-labelled cysteine peptide fold change” value is, setting by setting: (10 µM) -0.0441; (50 µM) 0.0964.

Regarding “PSMC6_P62333_228_DHQPCIIFMDEIDAIGGR (UniProt P62333)”, the “probe-labelled cysteine peptide fold change” value worked out at 0.0984 (10 µM) and 0.0826 (50 µM).

As for “PTDSS1_P48651_347_QYYAYLTDTQCKR (UniProt P48651)”, the “probe-labelled cysteine peptide fold change” value (10 µM) was -0.0444 and the “probe-labelled cysteine peptide fold change” value (50 µM) came to 0.128.

With “PTPRC_P08575_853_VNAFSNFFSGPIVVHCSAGVGR (UniProt P08575)”, the “probe-labelled cysteine peptide fold change” value runs as follows: (10 µM) 0.237; (50 µM) -0.0548.

As for “PSMD3_O43242_483_ISFCLDIHNMSVK (UniProt O43242)”, the “probe-labelled cysteine peptide fold change” value was -0.196 (10 µM) and -0.103 (50 µM).

Take “PTCD3_Q96EY7_139_DIAEPHIPCLMPEYFEPQIK (UniProt Q96EY7)”: the “probe-labelled cysteine peptide fold change” value runs as follows: (10 µM) -0.296; (50 µM) -0.376.

As for “PSMD14_O00487_299_HLEEHVDVLMTSNIVQCLAAMLDTVVFK (UniProt O00487)”, the “probe-labelled cysteine peptide fold change” value by setting is: (10 µM) -0.427; (50 µM) -0.257.

For “PSMG1_O95456_169_NMQITILTCR (UniProt O95456)”, the “probe-labelled cysteine peptide fold change” value was -0.0944 (10 µM) and 0.000106 (50 µM).

Regarding “PTPN23_Q9H3S7_116_YEQACILYNLGALHSMLGAMDK (UniProt Q9H3S7)”, the “probe-labelled cysteine peptide fold change” value runs as follows: (10 µM) 0.125; (50 µM) -0.0645.

In the case of “PSMB8_P28062_160_LLSNMMCQYR (UniProt P28062)”, the “probe-labelled cysteine peptide fold change” value is, setting by setting: (10 µM) 0.00249; (50 µM) -0.0625.

For “PTER_Q96BW5_36_TLTHEHLAMTFDCCYCPPPPCQEAISK (UniProt Q96BW5)”, the “probe-labelled cysteine peptide fold change” value (10 µM) was 0.15 and the “probe-labelled cysteine peptide fold change” value (50 µM) came out at 0.331.

Turning to “PSTPIP1_O43586_242_NALWVHSNQLSMQCVK (UniProt O43586)”, the “probe-labelled cysteine peptide fold change” value runs as follows: (10 µM) 0.232; (50 µM) 0.0662.

For “PTPN6_P29350_480_GLDCDIDIQK (UniProt P29350)”, the “probe-labelled cysteine peptide fold change” value reads like this: (10 µM) -0.0438; (50 µM) -0.0727.

For “PSMD4_P55036_58_SNPENNVGLITLANDCEVLTTLTPDTGR (UniProt P55036)”, the “probe-labelled cysteine peptide fold change” value runs as follows: (10 µM) -0.0408; (50 µM) -0.155.
